{"source": "patent US7598273B2", "about": "“Inhibitors of the gastric H+, K+-ATPase with enhanced therapeutic properties” (Auspex Pharmaceuticals, Inc, priority 2005, dated 2009)", "test": "Human liver microsomal stability assay", "details": "human liver microsomes 1 mg per mL protein, NADPH-generating system, 37° C.", "note": "Counter-ions that a name gives are not always drawn. Some of these results come from one statement about several compounds together.", "data": [{"molecule": "[2H]c1nc(C[S@@+]([O-])c2nc3cc(OC([2H])([2H])[2H])ccc3[nH]2)c(C([2H])([2H])[2H])c(OC([2H])([2H])[2H])c1C([2H])([2H])[2H]", "note": "[Example 43, d13-(R)-5-methoxy-2-(4-methoxy-3,5-dimethylpyridin-2-ylmethane-sulfinyl)-1H-benzimidazole sodium salt]", "values": [{"measurement": "degradation half-life increased as compared to non-isotopically enriched omeprazole", "value": "20-60%"}, {"measurement": "increase in the degradation half-life, as compared to the non-isotopically enriched drug", "setting": "0-120 minutes, LC/MS/MS", "value": "≥ 10", "unit": "%"}]}]}
